Results are given in words; binding and its absence hold for the method and conditions named. In cells and extracts the contact can be indirect. Some results given as binding are weak or reduced against the parent protein; the word gives no strength.

Chains of the proteins cited; added tags and fusions are not shown.
UniProt Q9Y5K5: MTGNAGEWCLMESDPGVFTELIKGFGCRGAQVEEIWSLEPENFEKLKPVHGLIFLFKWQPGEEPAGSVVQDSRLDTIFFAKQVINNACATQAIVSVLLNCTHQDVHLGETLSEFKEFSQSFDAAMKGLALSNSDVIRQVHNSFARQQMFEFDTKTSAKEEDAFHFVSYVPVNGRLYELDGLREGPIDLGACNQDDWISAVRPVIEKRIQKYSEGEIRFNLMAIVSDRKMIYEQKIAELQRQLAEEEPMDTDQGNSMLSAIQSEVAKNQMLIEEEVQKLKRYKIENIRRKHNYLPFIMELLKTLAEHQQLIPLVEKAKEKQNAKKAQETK

This passage reports binding results from article PMC11315385.

For the experiment, the target named is Ubiquitin C-terminal hydrolase-L5 (human (endogenous in CAOV3)) (UniProt Q9Y5K5). As to the kind of experiment: co-IP; CAOV3 cells lysed in IP-lysis buffer; supernatant incubated overnight with specific antibodies at 4°C, then protein A/G beads for 3 h; captured proteins analysed by western blotting.

B1: Annexin A8 (protein, UniProt P13928 1-327)
chain: MAWWKSWIEQEGVTVKSSSHFNPDPDAETLYKAMKGIGTNEQAIIDVLTKRSNTQRQQIAKSFKAQFGKDLTETLKSELSGKFERLIVALMYPPYRYEAKELHDAMKGLGTKEGVIIEILASRTKNQLREIMKAYEEDYGSSLEEDIQADTSGYLERILVCLLQGSRDDVSSFVDPGLALQDAQDLYAAGEKIRGTDEMKFITILCTRSATHLLRVFEEYEKIANKSIEDSIKSETHGSLEEAMLTVVKCTQNLHSYFAERLYYAMKGAGTRDGTLIRNIVSRSEIDLNLIKCHFKKMYGKTLSSMIMEDTSGDYKNALLSLVGSDP
On to B1, for which the binding entry is given as “binds”.
